± gives the standard deviation of the averaged measurements. This is a selection; strong and weak results do not stand in their true shares.
Compound: Nc1ncnc2c1ncn2[C@@H]1O[C@H](COP(=O)(O)OP(=O)(O)OP(=O)(O)O)[C@@H](O)[C@H]1O [adenosine triphosphate]
Experiment: NP40-soluble protein abundance relative to vehicle (solubility fold change) (ratio); higher = more soluble protein in presence of ATP
Procedure, shortened: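 Across three independent experiments, values are fold changes against the detergent-processed vehicle for each replicate, based on vsn-normalised intensities. The samples were Jurkat crude lysate treated with eight concentrations (0.1 to 10 mM) for 10 min at room temperature and then 3 min at 37 °C. Lysate was solubilised with 0.8% NP40 and benzonase, ultracentrifuged, and the supernatant analysed by TMT-labelled LC-MS/MS.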

By UniProt entry, the sequences of proteins in these tests, tags left out. Where a name states a change or a piece, a line headed by the entry shows the natural chain unless it says otherwise.
UniProt Q969V6: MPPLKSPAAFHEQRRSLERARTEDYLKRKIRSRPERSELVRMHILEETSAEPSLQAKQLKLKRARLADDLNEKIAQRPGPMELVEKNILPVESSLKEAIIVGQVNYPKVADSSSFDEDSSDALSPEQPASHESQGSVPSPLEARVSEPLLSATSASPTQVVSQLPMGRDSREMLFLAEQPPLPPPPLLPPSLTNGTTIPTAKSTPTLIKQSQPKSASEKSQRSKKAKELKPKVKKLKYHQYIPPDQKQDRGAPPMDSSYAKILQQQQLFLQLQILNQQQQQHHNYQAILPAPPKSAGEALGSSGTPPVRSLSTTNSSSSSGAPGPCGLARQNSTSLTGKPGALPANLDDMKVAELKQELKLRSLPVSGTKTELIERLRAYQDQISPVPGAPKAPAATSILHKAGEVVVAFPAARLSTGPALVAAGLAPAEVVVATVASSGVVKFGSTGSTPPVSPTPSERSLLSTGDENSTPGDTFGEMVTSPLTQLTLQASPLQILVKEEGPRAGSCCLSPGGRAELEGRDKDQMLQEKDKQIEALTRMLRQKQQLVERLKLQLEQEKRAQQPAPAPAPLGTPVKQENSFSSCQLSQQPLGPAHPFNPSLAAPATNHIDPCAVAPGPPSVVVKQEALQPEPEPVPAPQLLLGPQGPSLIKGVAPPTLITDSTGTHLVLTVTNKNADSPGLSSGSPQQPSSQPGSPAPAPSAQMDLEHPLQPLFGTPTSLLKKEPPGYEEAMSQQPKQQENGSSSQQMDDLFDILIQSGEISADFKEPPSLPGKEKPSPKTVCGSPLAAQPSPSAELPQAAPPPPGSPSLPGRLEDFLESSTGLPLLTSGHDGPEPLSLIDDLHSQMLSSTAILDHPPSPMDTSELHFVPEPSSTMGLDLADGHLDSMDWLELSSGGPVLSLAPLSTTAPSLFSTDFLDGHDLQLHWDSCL
UniProt Q8TDR2: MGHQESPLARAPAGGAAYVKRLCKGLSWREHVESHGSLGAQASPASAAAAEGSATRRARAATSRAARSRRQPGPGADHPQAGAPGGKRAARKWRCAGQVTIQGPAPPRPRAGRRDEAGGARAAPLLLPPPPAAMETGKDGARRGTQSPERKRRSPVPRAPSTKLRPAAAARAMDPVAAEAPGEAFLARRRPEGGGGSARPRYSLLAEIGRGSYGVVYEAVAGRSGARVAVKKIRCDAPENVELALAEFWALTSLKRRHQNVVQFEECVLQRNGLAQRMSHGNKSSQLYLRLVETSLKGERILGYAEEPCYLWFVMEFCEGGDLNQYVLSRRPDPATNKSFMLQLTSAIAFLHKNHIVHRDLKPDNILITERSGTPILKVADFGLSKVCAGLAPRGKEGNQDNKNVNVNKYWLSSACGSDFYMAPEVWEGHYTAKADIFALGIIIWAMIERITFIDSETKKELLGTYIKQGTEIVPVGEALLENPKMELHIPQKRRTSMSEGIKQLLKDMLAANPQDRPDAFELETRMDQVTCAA
UniProt P51790: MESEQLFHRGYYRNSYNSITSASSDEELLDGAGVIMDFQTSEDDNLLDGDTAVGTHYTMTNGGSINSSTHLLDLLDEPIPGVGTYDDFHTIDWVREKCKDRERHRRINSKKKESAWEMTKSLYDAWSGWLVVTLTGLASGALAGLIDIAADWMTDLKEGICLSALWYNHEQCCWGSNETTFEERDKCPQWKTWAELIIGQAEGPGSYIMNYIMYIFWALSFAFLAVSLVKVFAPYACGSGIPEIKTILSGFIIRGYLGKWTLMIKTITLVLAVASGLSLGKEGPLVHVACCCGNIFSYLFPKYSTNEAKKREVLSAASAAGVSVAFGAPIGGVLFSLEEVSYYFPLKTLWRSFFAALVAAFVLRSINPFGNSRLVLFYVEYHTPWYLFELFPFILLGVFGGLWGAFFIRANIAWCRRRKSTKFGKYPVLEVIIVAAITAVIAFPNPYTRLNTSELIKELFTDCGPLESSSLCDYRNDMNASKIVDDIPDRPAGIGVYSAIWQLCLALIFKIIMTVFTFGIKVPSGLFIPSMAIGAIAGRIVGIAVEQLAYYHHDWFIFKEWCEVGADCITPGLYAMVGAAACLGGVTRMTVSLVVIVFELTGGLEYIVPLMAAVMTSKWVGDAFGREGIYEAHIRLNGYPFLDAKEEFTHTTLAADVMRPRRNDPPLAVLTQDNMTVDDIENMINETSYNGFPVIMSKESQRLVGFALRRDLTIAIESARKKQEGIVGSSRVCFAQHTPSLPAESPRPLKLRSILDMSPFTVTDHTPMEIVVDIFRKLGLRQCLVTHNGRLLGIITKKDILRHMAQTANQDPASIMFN
UniProt Q765P7: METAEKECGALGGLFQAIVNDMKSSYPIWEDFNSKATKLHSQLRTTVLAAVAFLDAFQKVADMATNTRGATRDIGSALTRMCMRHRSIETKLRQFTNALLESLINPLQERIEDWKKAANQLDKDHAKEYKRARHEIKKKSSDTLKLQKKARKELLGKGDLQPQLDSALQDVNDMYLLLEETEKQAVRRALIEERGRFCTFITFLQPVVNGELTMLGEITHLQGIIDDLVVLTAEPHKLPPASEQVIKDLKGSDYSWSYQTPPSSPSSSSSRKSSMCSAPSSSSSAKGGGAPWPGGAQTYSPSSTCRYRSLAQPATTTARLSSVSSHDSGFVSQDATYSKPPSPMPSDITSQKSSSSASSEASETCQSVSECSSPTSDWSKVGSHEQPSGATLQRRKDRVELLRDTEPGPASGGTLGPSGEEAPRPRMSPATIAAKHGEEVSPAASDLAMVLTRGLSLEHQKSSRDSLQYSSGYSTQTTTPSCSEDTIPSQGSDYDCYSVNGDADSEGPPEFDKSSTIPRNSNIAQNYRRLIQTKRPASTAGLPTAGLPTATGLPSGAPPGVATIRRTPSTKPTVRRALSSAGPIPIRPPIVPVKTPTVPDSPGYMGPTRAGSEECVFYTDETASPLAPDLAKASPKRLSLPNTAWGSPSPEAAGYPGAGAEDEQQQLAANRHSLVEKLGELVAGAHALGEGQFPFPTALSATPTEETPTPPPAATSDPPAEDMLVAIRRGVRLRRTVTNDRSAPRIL
UniProt P27448: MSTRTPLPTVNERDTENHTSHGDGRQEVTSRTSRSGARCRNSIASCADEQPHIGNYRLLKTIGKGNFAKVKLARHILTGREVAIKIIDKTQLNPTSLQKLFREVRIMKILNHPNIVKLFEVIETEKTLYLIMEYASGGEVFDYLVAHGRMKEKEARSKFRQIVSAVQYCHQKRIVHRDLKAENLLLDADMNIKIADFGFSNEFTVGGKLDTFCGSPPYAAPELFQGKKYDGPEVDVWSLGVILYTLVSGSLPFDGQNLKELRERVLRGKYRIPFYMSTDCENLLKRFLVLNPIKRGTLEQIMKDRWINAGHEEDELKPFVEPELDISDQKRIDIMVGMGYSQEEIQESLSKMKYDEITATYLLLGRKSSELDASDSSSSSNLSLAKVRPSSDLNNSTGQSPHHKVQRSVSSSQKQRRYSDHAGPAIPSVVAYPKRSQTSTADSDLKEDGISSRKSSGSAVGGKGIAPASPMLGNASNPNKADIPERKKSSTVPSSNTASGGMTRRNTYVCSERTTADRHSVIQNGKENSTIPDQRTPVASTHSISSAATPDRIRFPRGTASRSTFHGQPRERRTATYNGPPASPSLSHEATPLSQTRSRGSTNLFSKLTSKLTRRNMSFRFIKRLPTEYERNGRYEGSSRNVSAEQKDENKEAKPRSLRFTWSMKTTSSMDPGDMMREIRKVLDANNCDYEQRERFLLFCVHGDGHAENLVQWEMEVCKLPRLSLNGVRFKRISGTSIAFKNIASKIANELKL
UniProt Q5HYA8: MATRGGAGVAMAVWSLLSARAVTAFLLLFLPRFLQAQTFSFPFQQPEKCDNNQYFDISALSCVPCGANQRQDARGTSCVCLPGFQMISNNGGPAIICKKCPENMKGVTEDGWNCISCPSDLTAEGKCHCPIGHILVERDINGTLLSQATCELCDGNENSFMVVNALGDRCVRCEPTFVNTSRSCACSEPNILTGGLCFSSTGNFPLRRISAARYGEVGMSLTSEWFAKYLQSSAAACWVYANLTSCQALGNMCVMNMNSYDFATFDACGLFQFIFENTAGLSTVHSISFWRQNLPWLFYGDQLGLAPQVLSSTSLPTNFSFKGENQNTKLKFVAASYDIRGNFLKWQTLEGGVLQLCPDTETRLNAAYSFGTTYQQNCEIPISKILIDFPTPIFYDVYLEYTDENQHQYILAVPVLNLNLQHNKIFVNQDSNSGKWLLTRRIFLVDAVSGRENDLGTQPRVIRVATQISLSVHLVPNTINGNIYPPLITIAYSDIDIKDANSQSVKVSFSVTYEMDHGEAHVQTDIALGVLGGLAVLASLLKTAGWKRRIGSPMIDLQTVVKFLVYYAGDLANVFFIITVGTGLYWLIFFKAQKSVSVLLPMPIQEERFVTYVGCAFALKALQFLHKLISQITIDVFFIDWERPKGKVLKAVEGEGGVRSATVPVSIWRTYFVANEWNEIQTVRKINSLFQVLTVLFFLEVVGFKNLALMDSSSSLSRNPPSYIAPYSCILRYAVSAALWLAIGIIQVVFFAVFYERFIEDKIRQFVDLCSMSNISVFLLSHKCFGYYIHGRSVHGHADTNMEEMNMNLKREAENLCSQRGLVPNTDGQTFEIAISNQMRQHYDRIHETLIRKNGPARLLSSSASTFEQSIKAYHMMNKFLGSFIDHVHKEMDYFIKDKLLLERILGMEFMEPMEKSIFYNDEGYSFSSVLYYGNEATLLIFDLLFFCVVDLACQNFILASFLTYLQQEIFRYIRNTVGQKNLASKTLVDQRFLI
UniProt Q7Z3E5: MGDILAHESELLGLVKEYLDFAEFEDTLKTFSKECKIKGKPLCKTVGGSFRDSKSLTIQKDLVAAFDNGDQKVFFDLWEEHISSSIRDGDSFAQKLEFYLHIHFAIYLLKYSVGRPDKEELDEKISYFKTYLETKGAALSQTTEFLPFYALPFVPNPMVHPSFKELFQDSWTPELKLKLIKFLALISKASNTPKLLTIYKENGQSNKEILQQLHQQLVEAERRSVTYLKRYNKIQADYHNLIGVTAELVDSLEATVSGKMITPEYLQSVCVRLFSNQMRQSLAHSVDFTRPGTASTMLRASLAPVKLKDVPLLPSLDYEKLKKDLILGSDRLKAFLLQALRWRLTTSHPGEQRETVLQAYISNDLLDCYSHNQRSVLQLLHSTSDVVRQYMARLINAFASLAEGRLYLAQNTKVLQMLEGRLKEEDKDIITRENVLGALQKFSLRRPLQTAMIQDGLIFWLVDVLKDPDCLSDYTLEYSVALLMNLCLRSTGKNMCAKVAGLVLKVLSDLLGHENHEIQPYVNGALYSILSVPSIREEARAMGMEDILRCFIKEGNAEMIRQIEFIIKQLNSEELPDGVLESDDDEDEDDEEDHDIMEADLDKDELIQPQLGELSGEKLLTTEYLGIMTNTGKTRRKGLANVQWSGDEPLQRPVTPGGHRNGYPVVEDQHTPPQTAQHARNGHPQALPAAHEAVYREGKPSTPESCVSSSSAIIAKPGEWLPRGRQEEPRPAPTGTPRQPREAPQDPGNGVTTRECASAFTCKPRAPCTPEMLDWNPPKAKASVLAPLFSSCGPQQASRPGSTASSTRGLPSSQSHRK
UniProt O14979: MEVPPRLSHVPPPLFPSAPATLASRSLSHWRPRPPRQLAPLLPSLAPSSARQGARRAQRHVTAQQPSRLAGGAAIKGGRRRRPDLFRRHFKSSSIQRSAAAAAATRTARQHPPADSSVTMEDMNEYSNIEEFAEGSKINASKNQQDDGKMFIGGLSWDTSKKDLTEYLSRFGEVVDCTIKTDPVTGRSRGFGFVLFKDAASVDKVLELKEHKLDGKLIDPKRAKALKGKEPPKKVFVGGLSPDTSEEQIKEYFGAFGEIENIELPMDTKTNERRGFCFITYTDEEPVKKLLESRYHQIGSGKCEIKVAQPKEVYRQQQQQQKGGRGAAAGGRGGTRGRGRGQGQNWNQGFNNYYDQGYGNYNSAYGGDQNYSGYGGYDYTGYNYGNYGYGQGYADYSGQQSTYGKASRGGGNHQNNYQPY
UniProt Q13555: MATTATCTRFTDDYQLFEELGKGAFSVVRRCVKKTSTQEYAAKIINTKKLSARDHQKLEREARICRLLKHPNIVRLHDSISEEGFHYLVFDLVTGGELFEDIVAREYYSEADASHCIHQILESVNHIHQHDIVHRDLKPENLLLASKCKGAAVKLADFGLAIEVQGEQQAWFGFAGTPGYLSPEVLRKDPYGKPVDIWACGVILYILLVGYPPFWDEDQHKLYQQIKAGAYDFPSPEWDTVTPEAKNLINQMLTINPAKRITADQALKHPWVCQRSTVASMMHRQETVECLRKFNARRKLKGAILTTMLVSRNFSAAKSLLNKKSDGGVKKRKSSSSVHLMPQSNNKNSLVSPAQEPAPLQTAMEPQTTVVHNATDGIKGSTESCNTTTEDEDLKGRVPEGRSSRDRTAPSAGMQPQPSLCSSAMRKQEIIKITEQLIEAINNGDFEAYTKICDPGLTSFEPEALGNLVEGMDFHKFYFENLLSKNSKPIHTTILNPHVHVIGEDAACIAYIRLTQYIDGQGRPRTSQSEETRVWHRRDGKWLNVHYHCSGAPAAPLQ

Target	NP40-soluble protein abundance (concentration: 1mM)	NP40-soluble protein abundance (concentration: 2mM)	NP40-soluble protein abundance (concentration: 4mM)	NP40-soluble protein abundance (concentration: 6mM)	NP40-soluble protein abundance (concentration: 8mM)	NP40-soluble protein abundance (concentration: 10mM)
A0A087X1Z3|Q9UL46 (UniProt Q9UL46)	0.932 ± 0.096	0.896 ± 0.011	0.934 ± 0.012	0.9 ± 0.099	0.953 ± 0.01	0.82 ± 0.096
A0A087WUQ6|P07203 (UniProt P07203)	1.03 ± 0.073	1 ± 0.023	0.978 ± 0.026	0.975 ± 0.039	0.945 ± 0.077	0.99 ± 0.036
A0A087WU73|A0A087X287|B0QY83 and related entries (UniProt Q969V6)	0.909 ± 0.023	0.957 ± 0.13	1.03 ± 0.11	0.948 ± 0.15	0.939 ± 0.042	0.924 ± 0.13
A0A087X0M4|Q9BWU0 (UniProt Q9BWU0)	1 ± 0.034	1 ± 0.029	1.01 ± 0.024	1.02 ± 0.03	1.02 ± 0.033	1.03 ± 0.043
A0A087WYS9|Q15526 and related entries (UniProt Q15526)	0.988 ± 0.034	0.973 ± 0.046	0.954 ± 0.061	0.973 ± 0.074	0.975 ± 0.031	0.939 ± 0.082
A0A087WZ97|A0A087WZK6|A0A087X2C2|Q5T7M9 (UniProt Q5T7M9)	0.973 ± 0.072	1.05 ± 0.09	1.04 ± 0.03	0.981 ± 0.038	0.985 ± 0.04	0.964 ± 0.084
A0A0C4DGC9|Q8TDR2 (UniProt Q8TDR2)	1.07 ± 0.089	1.14 ± 0.028	1.11 ± 0.057	1.09 ± 0.058	1.07 ± 0.05	1.08 ± 0.073
A0A087WU31|A0A0A0MTB7|P51790 and related entries (UniProt P51790)	0.967 ± 0.054	1.01 ± 0.027	0.942 ± 0.032	0.947 ± 0.029	0.905 ± 0.025	0.946 ± 0.044
A0A0D9SF53|A0A0D9SFB3|A0A0D9SG12|O00571 (UniProt O00571)	1.12 ± 0.035	1.16 ± 0.031	1.23 ± 0.014	1.38 ± 0.051	1.51 ± 0.059	1.53 ± 0.094
A0A087WXN9|Q765P7 (UniProt Q765P7)	1 ± 0.051	1.02 ± 0.012	1.04 ± 0.05	1.02 ± 0.011	1.01 ± 0.036	0.974 ± 0.041
A0A0C4DGZ1|Q8N5P1 (UniProt Q8N5P1)	1.04 ± 0.08	1.12 ± 0.086	1.16 ± 0.097	1.31 ± 0.12	1.26 ± 0.11	1.33 ± 0.068
A0A0C4DFT8|G3XAA4 and related entries (UniProt Q9NQC1)	1.221 ± 0.012	1.35 ± 0.053	1.25 ± 0.15	1.43 ± 0.12	1.276 ± 0.011	1.38 ± 0.015
A0A0A0MT32|P38571 and related entries (UniProt P38571)	0.899 ± 0.056	0.904 ± 0.021	0.823 ± 0.1	0.856 ± 0.03	0.794 ± 0.068	0.879 ± 0.047
A0A087WUI1|Q9Y388 (UniProt Q9Y388)	1.2 ± 0.07	1.24 ± 0.097	1.29 ± 0.086	1.33 ± 0.065	1.34 ± 0.11	1.41 ± 0.16
A0A0A0MT23 (UniProt P27448)	1.14 ± 0.014	1.12 ± 0.044	1.11 ± 0.033	1.06 ± 0.038	1.1 ± 0.039	1.08 ± 0.047
A0A0C4DFP8|Q5HYA8 (UniProt Q5HYA8)	1.01 ± 0.12	0.885 ± 0.14	0.9429 ± 0.0073	0.96 ± 0.14	0.91067 ± 0.00083	0.953 ± 0.12
A0A0A6YYG7|Q6IBW4 and related entries (UniProt Q6IBW4)	1.06 ± 0.07	1.05 ± 0.08	1.08 ± 0.054	1.12 ± 0.12	1.07 ± 0.047	1.09 ± 0.06

Target	NP40-soluble protein abundance (concentration: 1mM)	NP40-soluble protein abundance (concentration: 2mM)	NP40-soluble protein abundance (concentration: 4mM)	NP40-soluble protein abundance (concentration: 6mM)	NP40-soluble protein abundance (concentration: 8mM)	NP40-soluble protein abundance (concentration: 10mM)
A0A0C4DGA2|O75521 and related entries (UniProt O75521)	1.01 ± 0.04	0.997 ± 0.016	0.973 ± 0.037	1.01 ± 0.023	0.976 ± 0.043	0.992 ± 0.037
A0A0A0MTD9|A0A0A0MTE6|A0A0B4J1S7|E9PMT0 and related entries (UniProt Q9Y2R2)	1.05 ± 0.067	1.03 ± 0.049	1.11 ± 0.076	1.08 ± 0.068	1.06 ± 0.092	1.13 ± 0.1
A0A087WY55|Q9NP79 (UniProt Q9NP79)	0.964 ± 0.09	0.958 ± 0.055	0.965 ± 0.07	0.908 ± 0.056	0.95 ± 0.037	0.856 ± 0.12
A0A087WZX0|Q86UU0 and related entries (UniProt Q86UU0)	0.995 ± 0.013	0.99 ± 0.072	0.985 ± 0.076	0.9883 ± 0.009	0.917 ± 0.13	0.923 ± 0.12
A0A0A0MTH9|O14981 (UniProt O14981)	1 ± 0.014	1 ± 0.029	0.989 ± 0.018	0.9716 ± 0.0085	0.988 ± 0.016	0.991 ± 0.029
A0A0A0MRV0|Q9P2E9 (UniProt Q9P2E9)	0.962 ± 0.083	0.939 ± 0.035	0.946 ± 0.066	1 ± 0.085	0.979 ± 0.037	0.929 ± 0.054
A0A0A0MTL5|D6R9R7 and related entries (UniProt Q13309)	1.08 ± 0.083	1.02 ± 0.12	0.977 ± 0.03	0.991 ± 0.059	1.02 ± 0.11	1.04 ± 0.16
A0A0A0MS49|Q8TEH3 (UniProt Q8TEH3)	1.04 ± 0.062	1.1 ± 0.036	1.08 ± 0.074	1.09 ± 0.042	1.04 ± 0.053	1.08 ± 0.033
A0A087X1I8|Q7Z3E5 and related entries (UniProt Q7Z3E5)	0.99 ± 0.077	1.01 ± 0.063	0.987 ± 0.072	0.935 ± 0.097	0.965 ± 0.049	1.02 ± 0.14
A0A087WUK2|O14979-3 (UniProt O14979)	1.01 ± 0.022	1 ± 0.035	0.998 ± 0.051	1.05 ± 0.085	1.04 ± 0.056	1.03 ± 0.061
A0A0C4DGH3|Q9Y6R0 (UniProt Q9Y6R0)	1.27 ± 0.13	1.27 ± 0.011	1.21 ± 0.089	1.19 ± 0.1	1.23 ± 0.071	1.23 ± 0.13
A0A087X0N3 (UniProt Q96MY1)	0.93 ± 0.019	0.967 ± 0.02	0.96 ± 0.032	0.965 ± 0.016	0.924 ± 0.085	0.896 ± 0.053
A0A087WYM3|Q8IXJ6 and related entries (UniProt Q8IXJ6)	0.881 ± 0.023	0.925 ± 0.045	0.911 ± 0.022	0.895 ± 0.064	0.895 ± 0.035	0.946 ± 0.041
A0A0A0MRY0|Q8WUA7 and related entries (UniProt Q8WUA7)	1.07 ± 0.1	1.03 ± 0.071	1.12 ± 0.11	1.06 ± 0.06	1.04 ± 0.11	1.01 ± 0.089
A0A087X0M1|H0YAA8 and related entries (UniProt Q9H204)	0.902 ± 0.14	0.882 ± 0.21	0.907 ± 0.16	0.855 ± 0.22	0.909 ± 0.12	0.786 ± 0.22
A0A0A0MS52|Q13555-2|Q13555-8|Q13555-9 (UniProt Q13555)	1.02 ± 0.034	1.02 ± 0.031	1.07 ± 0.012	1.11 ± 0.038	1.09 ± 0.057	1.06 ± 0.043

Whole records as entered above. Values in the order: NP40-soluble protein abundance (concentration: 1mM)	NP40-soluble protein abundance (concentration: 2mM)	NP40-soluble protein abundance (concentration: 4mM)	NP40-soluble protein abundance (concentration: 6mM)	NP40-soluble protein abundance (concentration: 8mM)	NP40-soluble protein abundance (concentration: 10mM)
A0A087X0M1|H0YAA8 and related entries (UniProt Q9H204) reads 0.902 ± 0.14	0.882 ± 0.21	0.907 ± 0.16	0.855 ± 0.22	0.909 ± 0.12	0.786 ± 0.22
A0A0A0MTL5|D6R9R7 and related entries (UniProt Q13309) reads 1.08 ± 0.083	1.02 ± 0.12	0.977 ± 0.03	0.991 ± 0.059	1.02 ± 0.11	1.04 ± 0.16

From the supplement of paper PMC6411743
